PubChem BioAssay AID652259 | Drosophila RNAi Screening Center | 2013

Purpose: 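Knock-downs that push a Wingless-driven reporter up or down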 (primary screen)
Cells: Drosophila clone 8 imaginal disc epithelial cells
Reagents: long dsRNA against Drosophila genes
Conditions: pathway stimulated by co-transfected Wingless expression plasmid
Measured: 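Dual luciferase reads per well after Wingless plasmid stimulation: reporter firefly light and Renilla control light; activity is firefly divided by Renilla, a ratio not deposited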
Reading the numbers: firefly reporter light: higher = more Wg reporter light, before normalisation; Renilla control light: higher = more transfected or surviving cells
Call rule: 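a knock-down is a candidate when at least two out of four statistical tests show it departing from its plate mean; one test alone signals a weak candidate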
Calls: active = candidate regulator (raises or lowers reporter); inactive = not a candidate
The deposit covers about 22,000 reagents; below is an unselected part of those with a known target gene and a result. Over the whole deposit, 233 (1.1%) are marked active. 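Light values are raw, unnormalised plate reads; the ratio scores behind the reporter calls were not deposited.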 The numbers tell different reagents against one gene apart. The record does not give: the amount of reagent, the time to read-out, the dose of the treatment.

| Target gene | reagent no. | reporter change call, replicate 1 | firefly reporter light, replicate 1 | firefly reporter light, replicate 2 | Renilla control light, replicate 1 | Renilla control light, replicate 2 | activity call |
| --- | --- | --- | --- | --- | --- | --- | --- |
| CG13300 | 1 | – | 944 | 4324 | 555 | 1640 | inactive |
| CG13692 | 1 | – | 2720 | 6470 | 1334 | 2602 | inactive |
| CG32445 | 1 | – | 14678 | – | 4125 | – | inactive |
| CG42238 | 1 | – | 12185 | – | 3040 | – | inactive |
| Gem3 (Gemin 3) | 1 | – | 6492 | – | 2888 | – | inactive |
| CG7368 | 1 | – | 11141 | – | 4339 | – | inactive |
| CG7368 | 2 | Wg reporter activity raised | 7.59e5 | 7.43e5 | 1.71e5 | 2.03e5 | inactive |
| Syx8 (Syntaxin 8) | 1 | – | 10440 | – | 5190 | – | inactive |
| Syx8 (Syntaxin 8) | 2 | – | 8.17e5 | 7.02e5 | 2.26e5 | 108 | inactive |
| PpV (Protein phosphatase V) | 1 | – | 20567 | – | 8873 | – | inactive |
| rgr (regular) | 1 | – | 18306 | – | 5488 | – | inactive |
| rgr (regular) | 2 | – | 10348 | – | 3088 | – | inactive |
| Chd3 | 1 | Wg reporter activity raised | 26810 | – | 2393 | – | active |
| CG5721 | 1 | – | 12294 | – | 4144 | – | inactive |
| CG1941 | 1 | – | 3212 | 9483 | 869 | 3771 | inactive |
| RpS15 (Ribosomal protein S15) | 1 | – | 4473 | – | 1973 | – | inactive |
| CG14036 | 1 | – | 2550 | 7801 | 774 | 2316 | inactive |
| CG42342 | 1 | – | 2937 | – | 1760 | – | inactive |
| CG42342 | 2 | Wg reporter activity raised | 3639 | – | 331 | – | active |
| CG42342 | 3 | – | 21770 | – | 6820 | – | inactive |
| CG42342 | 4 | – | 16901 | – | 4700 | – | inactive |
| CG42342 | 5 | – | 15206 | – | 4588 | – | inactive |
| CG42342 | 6 | – | 4.99e5 | 4.66e5 | 1.66e5 | 1.18e5 | inactive |
| CG42342 | 7 | – | 4.87e5 | 4.69e5 | 2.06e5 | 2.46e5 | inactive |
| Dip-C (Dipeptidase C) | 1 | – | 6747 | – | 2565 | – | inactive |
| Sarm (Sterile alpha and Armadillo motif) | 1 | – | 3899 | – | 397 | – | inactive |
| Sarm (Sterile alpha and Armadillo motif) | 2 | Wg reporter activity lowered | 3056 | – | 523 | – | inactive |
| Sarm (Sterile alpha and Armadillo motif) | 3 | – | 1912 | 7747 | 1591 | 2995 | inactive |
| Sarm (Sterile alpha and Armadillo motif) | 4 | – | 1131 | 5592 | 907 | 2380 | inactive |
| Sarm (Sterile alpha and Armadillo motif) | 5 | – | 953 | 7216 | 932 | 2652 | inactive |
| Sarm (Sterile alpha and Armadillo motif) | 6 | – | 4008 | – | 2256 | – | inactive |

Individual results from above:
For “activity call”, CG7368 #1 has inactive
CG42342 #2, reporter change call, replicate 1 = Wg reporter activity raised
Entry of rgr (regular) #1 under “firefly reporter light, replicate 1”: 18306
For “Renilla control light, replicate 2”, CG1941 shows 3771
CG13300, Renilla control light, replicate 1 → 555
